This note sets out measurements from article PMC10493023.

By UniProt entry, the sequences of proteins in these tests, tags left out.
UniProt Q9NRC8: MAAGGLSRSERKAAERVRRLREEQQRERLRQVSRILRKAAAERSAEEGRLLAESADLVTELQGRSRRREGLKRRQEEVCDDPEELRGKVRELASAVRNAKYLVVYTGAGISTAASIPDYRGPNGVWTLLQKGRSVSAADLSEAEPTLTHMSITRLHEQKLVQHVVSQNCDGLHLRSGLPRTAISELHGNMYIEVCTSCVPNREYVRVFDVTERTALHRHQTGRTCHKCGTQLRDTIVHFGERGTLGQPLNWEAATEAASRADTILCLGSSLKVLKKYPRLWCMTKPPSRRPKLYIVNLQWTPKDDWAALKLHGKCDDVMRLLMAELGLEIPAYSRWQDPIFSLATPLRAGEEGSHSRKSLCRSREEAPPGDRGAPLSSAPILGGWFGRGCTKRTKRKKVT
UniProt Q86WJ1: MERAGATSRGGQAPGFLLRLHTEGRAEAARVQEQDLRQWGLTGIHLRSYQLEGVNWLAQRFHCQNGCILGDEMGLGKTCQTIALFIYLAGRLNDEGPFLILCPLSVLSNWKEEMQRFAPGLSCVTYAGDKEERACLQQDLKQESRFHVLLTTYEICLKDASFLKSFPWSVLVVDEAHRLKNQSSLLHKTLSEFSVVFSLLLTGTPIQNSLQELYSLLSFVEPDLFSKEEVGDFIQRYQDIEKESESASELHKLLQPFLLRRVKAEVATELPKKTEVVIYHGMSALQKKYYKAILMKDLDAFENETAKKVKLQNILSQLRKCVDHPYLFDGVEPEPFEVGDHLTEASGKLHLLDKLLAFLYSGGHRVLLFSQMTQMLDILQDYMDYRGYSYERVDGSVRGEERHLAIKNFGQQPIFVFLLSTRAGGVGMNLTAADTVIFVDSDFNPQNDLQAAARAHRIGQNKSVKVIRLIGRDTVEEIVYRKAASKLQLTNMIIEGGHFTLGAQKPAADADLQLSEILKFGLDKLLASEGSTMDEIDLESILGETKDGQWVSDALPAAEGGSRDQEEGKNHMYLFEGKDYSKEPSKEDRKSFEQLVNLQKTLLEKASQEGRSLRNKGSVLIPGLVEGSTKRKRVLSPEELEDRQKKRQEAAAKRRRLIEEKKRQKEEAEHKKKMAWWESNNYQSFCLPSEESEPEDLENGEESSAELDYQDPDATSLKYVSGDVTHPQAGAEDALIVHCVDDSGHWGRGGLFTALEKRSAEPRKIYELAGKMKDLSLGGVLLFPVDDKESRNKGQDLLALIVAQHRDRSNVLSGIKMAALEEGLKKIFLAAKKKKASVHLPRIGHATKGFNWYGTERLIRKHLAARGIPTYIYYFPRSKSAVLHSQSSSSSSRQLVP
UniProt Q99814: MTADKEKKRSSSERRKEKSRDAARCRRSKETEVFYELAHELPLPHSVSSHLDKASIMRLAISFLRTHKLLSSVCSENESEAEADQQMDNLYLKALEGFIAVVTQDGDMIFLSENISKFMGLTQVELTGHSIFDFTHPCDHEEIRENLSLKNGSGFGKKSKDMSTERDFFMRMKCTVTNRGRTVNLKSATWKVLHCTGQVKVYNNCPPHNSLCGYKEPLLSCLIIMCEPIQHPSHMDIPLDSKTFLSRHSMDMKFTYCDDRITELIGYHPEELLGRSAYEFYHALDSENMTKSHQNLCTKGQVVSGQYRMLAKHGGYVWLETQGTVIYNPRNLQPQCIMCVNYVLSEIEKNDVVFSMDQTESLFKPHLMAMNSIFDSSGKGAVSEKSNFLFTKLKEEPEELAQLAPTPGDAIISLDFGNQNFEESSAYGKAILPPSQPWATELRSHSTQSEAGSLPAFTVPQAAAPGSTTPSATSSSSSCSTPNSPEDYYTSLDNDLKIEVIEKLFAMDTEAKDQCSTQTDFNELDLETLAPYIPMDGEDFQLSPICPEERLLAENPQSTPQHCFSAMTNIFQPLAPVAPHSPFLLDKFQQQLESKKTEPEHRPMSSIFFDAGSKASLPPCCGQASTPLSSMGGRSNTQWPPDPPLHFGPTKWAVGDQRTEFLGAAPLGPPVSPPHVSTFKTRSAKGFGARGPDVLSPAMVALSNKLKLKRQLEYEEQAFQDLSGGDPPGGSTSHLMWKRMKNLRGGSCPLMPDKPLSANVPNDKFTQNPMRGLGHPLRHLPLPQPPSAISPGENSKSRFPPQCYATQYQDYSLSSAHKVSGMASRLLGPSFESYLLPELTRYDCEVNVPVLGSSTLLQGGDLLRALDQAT

In test [1] the target is SIRT7 (human (endogenous in 786-O)) (UniProt Q9NRC8). The test is described as follows: co-IP; endogenous proteins; cells lysed in 200 mM KCl, 20 mM Tris-HCl pH 7.9, 5 mM MgCl2, 10% glycerol, 0.2 mM EDTA, 0.1% NP-40; lysates with antibodies or control IgG at 4 °C overnight; western blot.
Test [2] deals with CHD1L (human (endogenous in 786-O)) (UniProt Q86WJ1). The description is as above.

These are yes or no findings as the source states them, for the method shown. In cells and extracts the contact can be indirect. Some binding calls cover weakened binding; strength is not graded here.

CHD1L (from UniProt Q86WJ1 1-897): in test [1], the binding result is given as “binds”.
Turning to HIF-2α (from UniProt Q99814 1-870), the binding entry in test [2] was “binds”.
SIRT7 (from UniProt Q9NRC8 1-400): in test [2], the binding result is “binds”.
